{"source": "PubChem BioAssay AID1259254 (NCATS, 2017)", "screen": "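Genome-wide screen for genes that prevent DNA re-replication in cancer cells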 (primary screen)", "cell system": "human HCT116 colorectal cancer cells", "reagent": "single siRNA against human genes", "duration": "3 days", "read-out": "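Nuclei stained with Hoechst and imaged; cell-cycle phase assigned by DNA content; G2 share scaled per plate, non-targeting siRNA 0%, GMNN siRNA 100%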", "direction": "G2 robust z-score: higher = more G2 cells, more excess DNA replication", "rule for the call": "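An siRNA counts as active if its G2 robust z-score lies at least 5 MADs above the screen median; here such calls match roughly 38% of GMNN control or more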", "note": "In all, the deposit lists about 59,000 reagents; this is a part drawn at random. Of all reagents, about 1,550 (2.6%) are marked active. 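G2 share is only a proxy for re-replication; each gene was hit by three separate siRNAs, and active genes were retested.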 Reagents against one gene are numbered here. Not all columns of the deposit are shown. Not given: the amount of reagent."}
{"gene": "PAPSS1 (3'-phosphoadenosine 5'-phosphosulfate synthase 1)", "reagent no.": 1, "G2 robust z-score": 0.663, "call": "inactive"}
{"gene": "PAPSS1 (3'-phosphoadenosine 5'-phosphosulfate synthase 1)", "reagent no.": 2, "G2 robust z-score": -0.235, "call": "inactive"}
{"gene": "PAPSS1 (3'-phosphoadenosine 5'-phosphosulfate synthase 1)", "reagent no.": 3, "G2 robust z-score": -0.175, "call": "inactive"}
{"gene": "HSPG2 (heparan sulfate proteoglycan 2)", "reagent no.": 1, "G2 robust z-score": 0.068, "call": "inactive"}
{"gene": "HSPG2 (heparan sulfate proteoglycan 2)", "reagent no.": 2, "G2 robust z-score": -0.246, "call": "inactive"}
{"gene": "HSPG2 (heparan sulfate proteoglycan 2)", "reagent no.": 3, "G2 robust z-score": -0.585, "call": "inactive"}
{"gene": "CCNI (cyclin I)", "reagent no.": 1, "G2 robust z-score": -0.632, "call": "inactive"}
{"gene": "CCNI (cyclin I)", "reagent no.": 2, "G2 robust z-score": -0.935, "call": "inactive"}
{"gene": "CCNI (cyclin I)", "reagent no.": 3, "G2 robust z-score": -0.084, "call": "inactive"}
{"gene": "ALOXE3 (arachidonate epidermal lipoxygenase 3)", "reagent no.": 1, "G2 robust z-score": -1.5, "call": "inactive"}
{"gene": "ALOXE3 (arachidonate epidermal lipoxygenase 3)", "reagent no.": 2, "G2 robust z-score": 2.92, "call": "inactive"}
{"gene": "ALOXE3 (arachidonate epidermal lipoxygenase 3)", "reagent no.": 3, "G2 robust z-score": -1.12, "call": "inactive"}
{"gene": "PA2G4 (proliferation-associated 2G4)", "reagent no.": 1, "G2 robust z-score": -1.05, "call": "inactive"}
{"gene": "PA2G4 (proliferation-associated 2G4)", "reagent no.": 2, "G2 robust z-score": -0.904, "call": "inactive"}
{"gene": "PA2G4 (proliferation-associated 2G4)", "reagent no.": 3, "G2 robust z-score": 0.386, "call": "inactive"}
{"gene": "RBM11 (RNA binding motif protein 11)", "reagent no.": 1, "G2 robust z-score": 0.311, "call": "inactive"}
{"gene": "RBM11 (RNA binding motif protein 11)", "reagent no.": 2, "G2 robust z-score": 4.64, "call": "inactive"}
{"gene": "RBM11 (RNA binding motif protein 11)", "reagent no.": 3, "G2 robust z-score": 0.355, "call": "inactive"}
{"gene": "ZNF502 (zinc finger protein 502)", "reagent no.": 1, "G2 robust z-score": -0.759, "call": "inactive"}
{"gene": "ZNF502 (zinc finger protein 502)", "reagent no.": 2, "G2 robust z-score": -0.175, "call": "inactive"}
{"gene": "ZNF502 (zinc finger protein 502)", "reagent no.": 3, "G2 robust z-score": -0.929, "call": "inactive"}
{"gene": "EPG5 (ectopic P-granules 5 autophagy tethering factor)", "reagent no.": 1, "G2 robust z-score": -0.466, "call": "inactive"}
{"gene": "EPG5 (ectopic P-granules 5 autophagy tethering factor)", "reagent no.": 2, "G2 robust z-score": 0.482, "call": "inactive"}
{"gene": "EPG5 (ectopic P-granules 5 autophagy tethering factor)", "reagent no.": 3, "G2 robust z-score": -0.349, "call": "inactive"}

Entries listed so far whose target name begins with E or e:
{"gene": "EPG5 (ectopic P-granules 5 autophagy tethering factor)", "reagent no.": 1, "G2 robust z-score": -0.466, "call": "inactive"}
{"gene": "EPG5 (ectopic P-granules 5 autophagy tethering factor)", "reagent no.": 2, "G2 robust z-score": 0.482, "call": "inactive"}
{"gene": "EPG5 (ectopic P-granules 5 autophagy tethering factor)", "reagent no.": 3, "G2 robust z-score": -0.349, "call": "inactive"}
